Measurements reported in PubChem BioAssay AID504774 (Drosophila RNAi Screening Center, 2011).
Purpose: 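Knock-downs that shift viability of MMS-exposed cells relative to untreated ones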 (primary screen). System: Drosophila Kc167 cells. Knock-down reagent: long dsRNA against Drosophila genes, about 0.25 µg dsRNA per well. Duration: about 6 days: 3 days knock-down, then 3 days with or without MMS. Conditions: methyl methanesulphonate 0.004% (w/v) for 3 days after knock-down. Read-out: 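Viability in wells given MMS, read as ATP luminescence, normalised by quantiles plate by plate and averaged across replicates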. Direction: mean viability with MMS: higher = more surviving cells after MMS.
The screen tested about 23,000 reagents; shown is an unselected part of those with a known target gene and a result. 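Values are quantile-normalised luminescence on an arbitrary scale; higher means more cells surviving MMS.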 Names joined by + are all predicted targets of the reagent. Not all columns of the deposit are shown. Reagent sequences are not shown.

Against Taf4 [DRSC11297], the entry reads mean viability with MMS 3.20e6. After knock-down of Slc25A46b [DRSC02888] the results were mean viability with MMS 3.49e6. For CG32017 [DRSC17183], the values are mean viability with MMS 3.54e6. Knock-down of CG17646 [DRSC00507] gave: mean viability with MMS 3.62e6.

Part of the list above, reformatted.
| Target gene | DRSC id | mean viability with MMS |
| --- | --- | --- |
| Taf4 | DRSC11297 | 3.20e6 |
| Slc25A46b | DRSC02888 | 3.49e6 |

More results follow:
For 2mit [DRSC14194], the values are mean viability with MMS 3.52e6. Silencing of 2mit [DRSC15224] resulted in: mean viability with MMS 3.56e6. After knock-down of bin3 [DRSC04919], the record shows mean viability with MMS 3.30e6. Depletion of Nckx30C [DRSC02686] gave: mean viability with MMS 3.71e6. Knock-down of Nckx30C [DRSC02687] came out at: mean viability with MMS 3.51e6. After knock-down of Nckx30C [DRSC02688], the record shows mean viability with MMS 3.43e6.

For Nckx30C [DRSC02689], the entry reads mean viability with MMS 3.33e6. After knock-down of EndoA [DRSC14775], the screen gave mean viability with MMS 3.41e6. Silencing of UGP + PGRP-LF [DRSC10418] gave: mean viability with MMS 3.51e6. CG11911 [DRSC00331] showed mean viability with MMS 3.53e6.
